Test results taken from paper PMC6598649.
These are yes or no findings as the source states them, for the method shown. Binding seen in cells or lysates may run through a third protein. A result given as binding can be weak or reduced; the word gives no strength.

Molecular target: T1, TZSV NSs (co-IP construct) (Tomato zonate spot orthotospovirus) (UniProt B1NK03)
T1 sequence: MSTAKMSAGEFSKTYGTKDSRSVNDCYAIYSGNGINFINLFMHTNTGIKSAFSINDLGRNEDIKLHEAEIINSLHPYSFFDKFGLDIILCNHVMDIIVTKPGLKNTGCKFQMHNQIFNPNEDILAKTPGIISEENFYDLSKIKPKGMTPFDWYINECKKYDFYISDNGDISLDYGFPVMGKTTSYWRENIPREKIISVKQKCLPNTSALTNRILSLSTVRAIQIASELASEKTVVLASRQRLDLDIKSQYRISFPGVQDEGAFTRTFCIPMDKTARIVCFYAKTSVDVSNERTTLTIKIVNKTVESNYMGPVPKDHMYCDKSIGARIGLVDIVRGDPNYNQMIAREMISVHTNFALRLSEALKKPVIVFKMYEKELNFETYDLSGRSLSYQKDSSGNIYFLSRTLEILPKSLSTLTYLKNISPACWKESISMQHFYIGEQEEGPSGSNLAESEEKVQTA
Assay: co-IP; protein extracts of agroinfiltrated N. benthamiana leaves, 25 μL GFP-trap beads, 3 h at 4°C; 50 mM Tris-HCl pH 7.5, 150 mM NaCl, 2 mM MgCl2, 0.5 mM EDTA, 0.1% Triton, 0.5% NP-40, 10% glycerol; immunoblot with Anti-GFP and Anti-Myc

**Q.** For CaMYC2-Myc (Capsicum annuum (pepper)), which binding is on record?
**A.** binds
